Measurements taken from PubChem BioAssay AID1347075 (National Center for Advancing Translational Sciences (NCATS), 2019).
“And” between values parts separate entries of the source, which are not always exact repeats. Identical values can stand only once. About 5,500 (1.4%) of roughly 400,000 compounds were called active. This list was built around the results that the source calls inconclusive (neither active nor inactive); the mix of calls is not that of the screen. The call rests on the fitted dose curve; in most records, active means well fitted cell-killing curve with a large enough effect; inconclusive means small, poorly fitted or top-dose-only effect, or effect the other way; inactive means flat fitted curve, though single readings scatter. A potency beside an inconclusive call is a rough fit, not a confirmed value.

Assay: qHTS assay for MDR1-selective chemotherapeutics: Primary screen using the parental adenocarcinoma cell KB-3-1; further: nearly all actives have a fitted effect of over 60% in size
Details: KB-3-1 viability, CellTiter-Glo ATP luminescence, 72 h; activity change, negative = cytotoxic: at 46.1 µM (top of the series)
How it was run: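 Cytotoxicity in the drug-sensitive parental line KB-3-1 was scored as loss of CellTiter-Glo luminescence following 72 h incubation with compound. Values come from curve fitting of normalized concentration-response data.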
On the % scale 0 is the no-effect control and ±100 the full control effect; potency means the concentration at half of the fitted maximal effect.

Row | SMILES | Potency | activity change, negative = cytotoxic
1 | O=C(/C(=C/c1ccccc1)n1cncn1)c1ccc(Cl)cc1Cl | inconclusive: 18.4 µM [cytotoxic, single point] | 
2 | CCCC(=O)NC(=S)Nc1cccc(Cl)c1N1CCCCC1 | inconclusive: 25.9 µM [cytotoxic, single point] | 
3 | Cc1c(NC(=O)c2ccccc2NS(=O)(=O)c2ccc(Br)cc2)c(=O)n(-c2ccccc2)n1C |  | inactive: 8.33%
4 | Clc1ccc(CNc2nc(CN3CCOCC3)nc3scc(-c4ccccc4)c23)cc1 | inconclusive: 18.4 µM [cytotoxic, single point] | 
5 | Cc1ccc(NC(=O)C2CCN(c3cnccn3)CC2)cc1C |  | inactive: 10.2%
6 | CCOc1cc(CNCc2cccnc2)cc(Br)c1OCC(N)=O | inconclusive: 2.59 µM [cytotoxic, partial curve, poor fit] | 
7 | O=C(Nc1ccc2oc(-c3cccnc3)nc2c1)c1ccc(-c2ccc(Cl)cc2)o1 |  | inactive: -4.6%
8 | Cc1nc2cc(NS(=O)(=O)c3c(C)c(C)cc(C)c3C)ccc2s1 | active: 12.6 µM | 
9 | N#C/C(=C\Nc1ccc2cn[nH]c2c1)c1nc(-c2ccc(Cl)cc2)cs1 | inconclusive: 25.9 µM [cytotoxic, single point] | 
10 | CCCCCN(C(=O)CCC(=O)OCCOc1ccc(OCC)cc1)c1c(N)n(CCCC)c(=O)[nH]c1=O | inconclusive: 25.9 µM [rising, single point] | 
11 | CC1CCCCN1CCNC(=O)c1cc2c(-c3ccccc3F)nn(C)c2s1 (configuration not stated) |  | inactive: -4.34%
12 | CCOc1ccc2[nH]c(=O)c(CN(Cc3ccc(F)cc3)C(=O)c3ccco3)cc2c1 | active: 16.4 µM | 
13 | CC(C)CNc1ncnc2oc(-c3ccco3)c(-c3ccco3)c12 | inconclusive: 14.6 µM [cytotoxic, single point] | 
14 | OCCC#Cc1ccc(N2C(c3ccsc3)=Cc3ccc(F)cc3C2c2c[nH]c3ccccc23)cc1 (configuration not stated) | inconclusive: 29.1 µM [cytotoxic, single point] | 
15 | Cc1ccc(S(=O)(=O)N(C)C)cc1NC(=O)c1cc(-c2ccncc2)nc2ccccc12 | inconclusive: 29.1 µM [cytotoxic, single point] | 
16 | Cc1cccc(C)c1OCC(=O)N/N=C/c1ccc2c(c1)OCO2 | inconclusive: 2.59 µM [cytotoxic, full curve, poor fit] | 
17 | CCSc1nnc(SCC(=O)NC2CCCCC2)s1 | inconclusive: 2.31 µM [cytotoxic, partial curve, poor fit] | 
18 | Cc1nc2cc(NC(=O)CS(=O)(=O)c3ccccc3)ccc2s1 | inconclusive: 14.6 µM [rising, partial curve] | 
19 | CCCc1cc(=O)[nH]c(SCC(=O)Nc2ccc([N+](=O)[O-])cc2C#N)n1 | inconclusive: 2.91 µM [rising, full curve] | 
20 | O=C(CSc1n[nH]c(=O)n1Cc1ccccc1)Nc1ccc(F)c(F)c1F | inconclusive: 25.9 µM [cytotoxic, partial curve] | 
21 | CCCOc1ccc(NC(=O)CC2C(=O)N(C)C(=S)N2Cc2cccs2)cc1 (configuration not stated) | inconclusive: 16.4 µM [cytotoxic, single point] | 
22 | O=C(NNc1ccc([N+](=O)[O-])cc1[N+](=O)[O-])c1ccco1 | inconclusive: 23.1 µM [cytotoxic, single point] | 
23 | O=C(CC1CC2CCC1C2)N1CCN(S(=O)(=O)c2ccc(F)cc2)CC1 (configuration not stated) |  | inactive: 7.9%
24 | Cn1c(=O)c(C(=O)NNC(=O)c2ccccc2Br)c(O)c2ccccc21 | inconclusive: 29.1 µM [cytotoxic, single point] | 

Row | SMILES | Potency | activity change, negative = cytotoxic
25 | O=C(CNS(=O)(=O)c1c(Cl)cccc1Cl)N1CCCCCC1 | inconclusive: 29.1 µM [cytotoxic, single point] | 
26 | Cc1ccc(C)c(-c2cc(C(=O)Nc3sc(C)c(C)c3C(N)=O)c3ccccc3n2)c1 | inconclusive: 16.4 µM [cytotoxic, single point] | 
27 | O=S(=O)(NCc1ccccc1)c1ccc(-c2cnc(C3CC3)o2)cc1 | inconclusive: 18.4 µM [cytotoxic, single point] and active: 18.4 µM | 
28 | Nc1[nH]c(=O)nc2nnsc12 | inconclusive: 2.59 µM [rising, full curve, poor fit] | 
29 | Cc1ccc(C(=O)Nc2ccccc2C(=O)Nc2ccccn2)cc1Cl | inconclusive: 14.6 µM [cytotoxic, partial curve] | 
30 | CSCCC(NC(=O)c1cccc([N+](=O)[O-])c1)C(=O)O (configuration not stated) |  | inactive: 6.47%
31 | CCOc1cc(/C=C(\C#N)C(=O)Nc2ccc(S(N)(=O)=O)cc2)ccc1OCCN1CCOCC1 |  | inactive: 7.14%
32 | COc1ccccc1CNC(=O)CN1C(=O)CSc2ccc(S(=O)(=O)N(C)C)cc21 |  | inactive: 6.98%
33 | N#C/C(=C/c1cn(-c2ccccc2)nc1-c1cccc(S(=O)(=O)N2CCCC2)c1)C(=O)NCc1ccco1 |  | inactive: -1.32%
34 | CCCn1c(NC(=O)C2CCN(S(=O)(=O)c3cccs3)CC2)nc2ccccc21 | active: 23.1 µM | 
35 | C(=Cc1cccnc1)c1ccncc1 |  | inactive: -0.0423%
36 | O=C1C=C(NC2=CC3OC(c4ccccc4)OCC3OC2=O)CCC1 (configuration not stated) | inconclusive: 29.1 µM [cytotoxic, single point] | 
37 | O=C(NCCSc1ccccn1)c1ccc(Cl)cc1 |  | inactive: -6.06%
38 | O=C(CSc1ccccc1)N1CCN(c2ccc(F)cc2)CC1 | inconclusive: 2.59 µM [rising, partial curve, poor fit] | 
39 | O=c1[nH]c(/C=C/c2ccc(OC(F)F)cc2)nc2c1cnn2-c1ccccc1 |  | inactive: -9.84%
40 | COc1ccccc1N=CC1=C(O)CC(c2ccccc2)CC1=O (configuration not stated) |  | inactive: -0.216%
41 | O=C(CSc1nc2ccccc2s1)N/N=C/c1cc([N+](=O)[O-])ccc1O |  | inactive: -4.97%
42 | O=C(NC(c1ccc(Cl)cc1)c1cnccn1)C1CCN(Cc2ccc(Oc3ccccc3)cc2)CC1 (configuration not stated) | inconclusive: 29.1 µM [cytotoxic, single point] | 
43 | C=CCn1c(-c2ccc3[nH]c(C)c(C)c3c2)n[nH]c1=S | inconclusive: 29.1 µM [cytotoxic, single point] | 
44 | COc1ccc([N+](=O)[O-])cc1NC(=O)c1ccccc1N(C)S(C)(=O)=O | inconclusive: 0.651 µM [rising, full curve, poor fit] | 
45 | O=C(Nc1c2ccccc2nc2ccccc12)C(Cl)(Cl)Cl | inconclusive: 25.9 µM [cytotoxic, single point] | 
46 | CC(C)(C)c1cc(-c2ccccc2)no1 |  | inactive: 7.91%
47 | COc1ccc(-c2[nH]c3ccccc3c2SCCNC(=O)c2ccccc2)cc1 | active: 20.6 µM | 
48 | CCCC[C@@H]1CNC(=S)N1CC1CCCCC1 |  | inactive: 5.41%

Row | SMILES | Potency | activity change, negative = cytotoxic
49 | O=C1NC(=O)/C(=C/c2cccc([N+](=O)[O-])c2)N1 | inconclusive: 16.4 µM [cytotoxic, partial curve, poor fit] | 
50 | O=[N+]([O-])c1cc(C(F)(F)F)ccc1N1CCN(S(=O)(=O)c2ccc3c(c2)CCCC3)CC1 | inconclusive: 16.4 µM [cytotoxic, partial curve] | 
51 | CCN(C(=O)CSc1nc2ccccc2n1CC(=O)Nc1ccccc1C)c1ccccc1 |  | inactive: -10.7%
52 | COc1cc(CNc2ccc3[nH]c(=O)[nH]c3c2)ccc1OCc1ccccc1F | inactive | 
53 | COc1cc2c(cc1OC)C(c1cc(C)ccc1C)CC(=O)N2 (configuration not stated) |  | inactive: 0%
54 | COC(=O)c1ccc(Cn2cc(/C=C\[N+](=O)[O-])c3ccccc32)o1 | inconclusive: 29.1 µM [cytotoxic, single point] | 
55 | Nc1ncc(-c2ccccc2)c(-c2ccc(OCc3ccccc3)cc2O)n1 | inconclusive: 0.206 µM [rising, full curve] | 
56 | COc1ccc2nc(-c3ccccn3)ccc2c1 | inconclusive: 16.4 µM [cytotoxic, single point] | 
57 | CCOC(=O)c1sc(-c2ccc(C(F)(F)F)cc2)nc1O |  | inactive: -10.7%
58 | O=C(N/N=C/c1ccccc1O)C1SCCCS1 | inconclusive: 11.6 µM [cytotoxic, partial curve] | 
59 | COc1ccc(/C=C/C(=O)OCc2nc3ccccc3c(=O)[nH]2)c(OC)c1 |  | inactive: -0.407%
60 | Cc1ccc2[nH]c(=O)c(CN(Cc3ccco3)Cc3nnnn3Cc3ccccc3)cc2c1 |  | inactive: 0%
61 | COc1ccc(C(O)(C2CCCCC2)C(CN2CCOCC2)c2ccccc2)cc1 (configuration not stated) | inconclusive: 16.4 µM [cytotoxic, single point] | 
62 | CN1CCN(S(=O)(=O)c2ccc(Cl)cc2)CC1 | inactive | 
63 | CCc1nc(SCC(=O)NC2CCCC2)c2oc3ccccc3c2n1 |  | inactive: 1.18%
64 | COc1cc(Nc2c3ccccc3nc3ccccc23)cc(OC)c1OC | inconclusive: 23.1 µM [cytotoxic, single point] | 
65 | CN1CCN(C(=O)c2cc3c(c(-c4cccc(Br)c4)n2)[C@H](CCO)N(S(=O)C(C)(C)C)C3)CC1 (some centres not stated) |  | inactive: 0.0536%
66 | CCCCC[n+]1ccn(C2=C([O-])c3ccccc3C(=O)/C2=N\S(=O)(=O)c2ccc(Br)cc2)c1 | inconclusive: 29.1 µM [cytotoxic, single point] | 
67 | COc1ccc(CCc2cc(OC)c(OC)c(OC)c2)cc1 | active: 0.517 µM | 
68 | O=C1CCCN1CCC1CCCCN1Cc1nc(-c2cnccn2)no1 (configuration not stated) | inconclusive: 8.2 µM [rising, single point] | 
69 | Cc1nn(Cc2ccc(Cl)cc2)c(C)c1NC(=O)c1noc2c1CCc1ccccc1-2 | inconclusive: 29.1 µM [cytotoxic, single point] | 
70 | O=C(/C=C\c1ccco1)Nc1nc(-c2ccc3ccccc3c2)cs1 |  | inactive: -2.35%
71 | CCOc1ccc(CNC(=O)C2CCCN(S(=O)(=O)c3ccc4c(c3)CCCC(=O)N4)C2)cc1 (configuration not stated) | inconclusive: 16.4 µM [cytotoxic, partial curve] | 
72 | COc1ccc(C(=O)C2CCCN(C(=O)c3cccc(N(C)C)c3)C2)cc1OC (configuration not stated) | inconclusive: 0.0046 µM [cytotoxic, full curve, poor fit] | 
